This assay addresses T1, OGT (UniProt Q8CGY8).
T1 sequence: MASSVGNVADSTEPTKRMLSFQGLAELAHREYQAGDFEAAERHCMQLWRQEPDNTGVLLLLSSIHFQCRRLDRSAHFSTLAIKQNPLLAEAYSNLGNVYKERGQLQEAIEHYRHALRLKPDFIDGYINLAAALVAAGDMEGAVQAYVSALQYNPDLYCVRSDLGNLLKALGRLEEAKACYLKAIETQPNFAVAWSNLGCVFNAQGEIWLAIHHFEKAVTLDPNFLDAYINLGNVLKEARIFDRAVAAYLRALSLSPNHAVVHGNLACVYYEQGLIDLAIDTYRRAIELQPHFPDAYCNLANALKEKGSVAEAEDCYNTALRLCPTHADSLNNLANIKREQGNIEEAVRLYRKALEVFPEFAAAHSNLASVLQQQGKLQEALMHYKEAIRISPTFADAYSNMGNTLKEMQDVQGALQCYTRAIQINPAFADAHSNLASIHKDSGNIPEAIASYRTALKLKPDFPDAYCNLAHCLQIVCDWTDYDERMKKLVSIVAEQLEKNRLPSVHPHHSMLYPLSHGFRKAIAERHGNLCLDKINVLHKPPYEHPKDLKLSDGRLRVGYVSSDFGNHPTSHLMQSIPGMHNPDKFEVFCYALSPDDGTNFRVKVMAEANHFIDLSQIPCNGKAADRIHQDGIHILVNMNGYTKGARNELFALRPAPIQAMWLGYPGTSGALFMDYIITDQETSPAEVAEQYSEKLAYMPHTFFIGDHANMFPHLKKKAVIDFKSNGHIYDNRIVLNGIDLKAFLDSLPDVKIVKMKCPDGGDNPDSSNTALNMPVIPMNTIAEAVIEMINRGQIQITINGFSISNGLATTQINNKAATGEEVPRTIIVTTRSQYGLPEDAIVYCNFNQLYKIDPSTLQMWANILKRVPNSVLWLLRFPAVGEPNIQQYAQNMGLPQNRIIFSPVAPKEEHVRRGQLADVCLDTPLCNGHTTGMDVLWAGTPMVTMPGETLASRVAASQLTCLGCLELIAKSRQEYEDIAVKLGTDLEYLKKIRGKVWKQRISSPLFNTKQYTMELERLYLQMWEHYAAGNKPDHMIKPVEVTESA
The assay is described as follows: co-IP; cells co-transfected with full-length OGT and YTHDF2 labeled with HA or Flag tags; lysate incubated with anti-HA antibody overnight at 4 °C, then Protein A/G Sepharose beads for 4 h; immunoblotting. (In general: In western blotting, separated proteins are transferred to a membrane and probed.)

Results are given in words; binding and its absence hold for the method and conditions named. Binding seen in cells or lysates may run through a third protein. Some entries that bind do so weakly or less than the wild type.

B1: YTHDF2 (protein, UniProt Q91YT7 1-579)
chain: MSASSLLEQRPKGQGNKVQNGSVHQKDGLNDDDFEPYLSPQARPNNAYTAMSDSYLPSYYSPSIGFSYSLGEAAWSTGGDTAMPYLTSYGQLSNGEPHFLPDAMFGQPGALGSTPFLGQHGFNFFPSGIDFSAWGNNSSQGQSTQSSGYSSNYAYAPSSLGGAMIDGQSAFANETLNKAPGMNTIDQGMAALKLGSTEVASSVPKVVGSAVGSGSITSNIVASSSLPPATIAPPKPASWADIASKPAKQQPKLKTKNGIAGSSLPPPPIKHNMDIGTWDNKGPVAKAPSQALVQNIGQPTQGSPQPVGQQANNSPPVAQASVGQQTQPLPPPPPQPAQLSVQQQAAQPTRWVAPRNRGSGFGHNGVDGNGVGQSQAGSGSTPSEPHPVLEKLRSINNYNPKDFDWNLKHGRVFIIKSYSEDDIHRSIKYNIWCSTEHGNKRLDAAYRSMNGKGPVYLLFSVNGSGHFCGVAEMKSAVDYNTCAGVWSQDKWKGRFDVRWIFVKDVPNSQLRHIRLENNENKPVTNSRDTQEVPLEKAKQVLKIIASYKHTTSIFDDFSHYEKRQEEEESVKKERQGRGK
With B1, the binding entry is given as “binds”.

The record behind these values is publication PMC11488288.
